PubChem BioAssay AID652259 – Drosophila RNAi Screening Center, 2013

Screen: 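Genome-wide hunt for genes that control Wingless pathway activity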 (primary screen)
System: Drosophila clone 8 imaginal disc epithelial cells
Reagent: long dsRNA against Drosophila genes
Challenge: pathway stimulated by co-transfected Wingless expression plasmid
Detection: 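Firefly luciferase from a tcf-site Wingless reporter, measured alongside co-transfected Renilla luciferase that tracks transfection; pathway stimulated by a Wingless plasmid; the firefly-to-Renilla ratio is not deposited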
Reading the numbers: firefly reporter light: higher = more Wg reporter light, before normalisation; Renilla control light: higher = more transfected or surviving cells
Active means: 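Strong candidates differ from their plate mean by at least two out of four per-plate statistical tests; weak candidates meet just one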
Calls: active = candidate regulator (raises or lowers reporter); inactive = not a candidate
The screen tested about 22,000 reagents; shown is an unselected part of those that have a named target and a result. Over the whole deposit, 233 (1.1%) were called active. 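Light values are raw, unnormalised plate reads; the ratio scores behind the reporter calls were not deposited.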 Unmarked entries are inactive. Reagents against one gene are numbered here. Reagent sequences are not shown. The record does not give: the amount of reagent, the time to read-out, the dose of the treatment.

| gene | reagent no. | reporter change call, replicate 1 | firefly reporter light, replicate 1 | firefly reporter light, replicate 2 | Renilla control light, replicate 1 | Renilla control light, replicate 2 |
| --- | --- | --- | --- | --- | --- | --- |
| Mondo | 1 | – | 14780 | – | 2437 | – |
| Mondo | 2 | – | 2295 | 6781 | 726 | 2744 |
| Mondo | 3 | – | 3.06e5 | 3.39e5 | 1.16e5 | 1.06e5 |
| Klp3A | 1 | – | 4040 | 8630 | 1665 | 3680 |
| Klp3A | 2 | – | 3.61e5 | 4.76e5 | 1.85e5 | 1.51e5 |
| eIF2A | 1 | – | 5222 | – | 2217 | – |
| Efhc1.2 | 1 | – | 9140 | – | 2893 | – |
| CG13331 | 1 | – | 5345 | – | 2443 | – |
| CCKLR-17D3 | 1 | – | 26985 | – | 1520 | – |
| CCKLR-17D3 | 2 | – | 13138 | – | 7584 | – |
| RpS14b | 1 | – | 18232 | – | 10508 | – |
| CG34450 | 1 | – | 3668 | 7481 | 1172 | 2992 |
| CR9337 | 1 | – | 9148 | – | 3053 | – |
| tub | 1 | – | 9552 | – | 3904 | – |
| tub | 2 | – | 6.39e5 | 6.61e5 | 2.02e5 | 2.53e5 |
| Nplp2 | 1 | – | 8249 | – | 2832 | – |
| CG10969 | 1 | – | 2880 | – | 1958 | – |
| CG13339 | 1 | – | 5984 | – | 2088 | – |
| gammaTub23C | 1 | – | 10429 | – | 3932 | – |
| Ugt37A3 | 1 | – | 21888 | – | 6993 | – |
| salto | 1 | – | 6097 | – | 2544 | – |
| nAChRalpha7 | 1 | – | 16761 | – | 11380 | – |
| nAChRalpha7 | 2 | – | 19734 | – | 10608 | – |
| Sb | 1 | – | 16272 | – | 4889 | – |
| Bet1 | 1 | – | 20064 | – | 4186 | – |
| CG32751 | 1 | – | 4.07e5 | 4.18e5 | 2.01e5 | 1.36e5 |
| CG31515 | 1 | – | 3783 | – | 603 | – |
| CG4957 | 1 | – | 3088 | 9016 | 1004 | 3872 |

10 entries already listed, ordered by “Renilla control light, replicate 1”, lowest first.
| gene | reagent no. | reporter change call, replicate 1 | firefly reporter light, replicate 1 | firefly reporter light, replicate 2 | Renilla control light, replicate 1 | Renilla control light, replicate 2 |
| --- | --- | --- | --- | --- | --- | --- |
| CG34450 | 1 | – | 3668 | 7481 | 1172 | 2992 |
| CG10969 | 1 | – | 2880 | – | 1958 | – |
| CG13339 | 1 | – | 5984 | – | 2088 | – |
| salto | 1 | – | 6097 | – | 2544 | – |
| Nplp2 | 1 | – | 8249 | – | 2832 | – |
| CR9337 | 1 | – | 9148 | – | 3053 | – |
| tub | 1 | – | 9552 | – | 3904 | – |
| gammaTub23C | 1 | – | 10429 | – | 3932 | – |
| Ugt37A3 | 1 | – | 21888 | – | 6993 | – |
| tub | 2 | – | 6.39e5 | 6.61e5 | 2.02e5 | 2.53e5 |

The results go on:
| gene | reagent no. | reporter change call, replicate 1 | firefly reporter light, replicate 1 | firefly reporter light, replicate 2 | Renilla control light, replicate 1 | Renilla control light, replicate 2 |
| --- | --- | --- | --- | --- | --- | --- |
| ACXC | 1 | – | 1781 | 7658 | 1029 | 3120 |
| Pp2B-14D | 1 | – | 10291 | – | 8332 | – |
| SA2 | 1 | – | 4903 | – | 3052 | – |
| mRpL15 | 1 | – | 5084 | – | 2048 | – |
| Hs3st-A | 1 | Wg reporter activity raised (active) | 12737 | – | 1181 | – |
| Hs3st-A | 2 | – | 7943 | – | 2012 | – |
| Hs3st-A | 3 | – | 7954 | – | 2113 | – |
| Rac1 | 1 | – | 4080 | – | 2166 | – |
| da | 1 | – | 2752 | 6884 | 1372 | 3044 |
| Ser6 | 1 | – | 18781 | – | 11781 | – |
| CG45263 | 1 | – | 3074 | – | 1819 | – |
| CG45263 | 2 | – | 18885 | – | 2901 | – |
| CG45263 | 3 | – | 12365 | – | 3217 | – |
| CG45263 | 4 | – | 17084 | – | 3447 | – |
| CG45263 | 5 | – | 9915 | – | 3248 | – |
| CG14826 | 1 | – | 2425 | 5110 | 1479 | 2761 |
| Nxt1 | 1 | – | 3878 | 10201 | 793 | 2800 |
| CG34109 | 1 | – | 3659 | 6168 | 1120 | 3296 |
| CG34109 | 2 | – | 1930 | 6577 | 1008 | 2850 |
| CG34109 | 3 | – | 2869 | 6189 | 1088 | 3552 |
| CG5225 | 1 | – | 16949 | – | 3261 | – |
| hiro | 1 | – | 20896 | – | 3872 | – |
| Gr97a | 1 | – | 3283 | – | 1604 | – |
| piwi | 1 | – | 7290 | – | 2469 | – |
| Mal-A6 | 1 | – | 2596 | 7344 | 875 | 3017 |
| CG6966 | 1 | – | 9714 | – | 2699 | – |
| CG12609 | 1 | – | 20466 | – | 10809 | – |
| Ggt-1 | 1 | – | 4019 | 11152 | 1093 | 3885 |
| side-VII | 1 | – | 8133 | – | 3657 | – |
| glob1 | 1 | – | 2961 | 5369 | 1696 | 1543 |
| CG9346 | 1 | – | 15009 | – | 2616 | – |
| CG11263 | 1 | – | 4620 | – | 2193 | – |
| sxe2 | 1 | – | 2295 | 6938 | 640 | 2482 |
| Ugt35A1 | 1 | – | 5752 | – | 1873 | – |
| CG43367 | 1 | – | 6929 | – | 2929 | – |
| CG43367 | 2 | – | 5318 | – | 2436 | – |
| CG43367 | 3 | – | 4841 | – | 2709 | – |
| emc | 1 | – | 2601 | – | 684 | – |
| Fst | 1 | – | 8404 | – | 3137 | – |
| alphaTub84B | 1 | – | 21586 | – | 3125 | – |
| meng | 1 | – | 1909 | 5104 | 1248 | 2668 |
| Hsp23 | 1 | – | 4480 | – | 1813 | – |
| Ctps | 1 | – | 3114 | – | 1853 | – |
| Ctps | 2 | – | 5123 | – | 1737 | – |
| Ctps | 3 | – | 3825 | – | 3284 | – |
